Percent effect of library compounds

Chains of the proteins cited; added tags and fusions are not shown. Residues count along the entry.
UniProt A4I591, 1-473: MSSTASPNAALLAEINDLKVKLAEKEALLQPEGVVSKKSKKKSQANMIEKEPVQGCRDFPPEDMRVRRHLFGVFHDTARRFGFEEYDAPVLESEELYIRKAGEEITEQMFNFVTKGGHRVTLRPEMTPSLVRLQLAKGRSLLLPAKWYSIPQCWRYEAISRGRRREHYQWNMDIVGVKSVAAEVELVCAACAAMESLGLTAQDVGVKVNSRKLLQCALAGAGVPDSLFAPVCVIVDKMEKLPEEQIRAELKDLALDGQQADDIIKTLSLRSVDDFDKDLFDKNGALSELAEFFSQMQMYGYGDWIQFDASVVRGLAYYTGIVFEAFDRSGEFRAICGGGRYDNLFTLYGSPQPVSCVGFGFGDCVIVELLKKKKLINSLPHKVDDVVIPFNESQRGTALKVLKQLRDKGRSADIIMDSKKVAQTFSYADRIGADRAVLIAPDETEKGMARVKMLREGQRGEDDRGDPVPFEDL

Toxoplasma: 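Assay of Toxoplasma gondii numbers, read through their beta-galactosidase reporter with a colour substrate. Compounds at 10 µM. Higher reads as fewer parasites (inferred from which compounds were picked for retests). Size under these conditions: about 67,000 compounds, about 260 of them at 50% or above in at least one test.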
LiHisRS: 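Enzyme assay of histidyl-tRNA synthetase; the read-out is not stated. Target: Histidine-tRNA ligase, Leishmania infantum (UniProt A4I591). Tested at 30 µM. Higher reads as stronger inhibition (inferred: compounds with an IC50 in retests scored well above the rest). The assay is labelled LdHisRS but filed under L. infantum. Size under these conditions: about 69,000 compounds, about 410 of them at 50% or above in at least one test.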

Values are the deposited “Percent Effect”, in %. How 0% and 100% were set is not recorded. Most values in the screen are low, and negative values occur. This is an unselected part of the compounds tested. A dash means the value is not listed here; it may have been measured.

CN(CCN1CCCCCC1)c1nccc(N2CCC(O)C2)n1 (centres unmarked) gave Toxoplasma: -4.715%; LiHisRS: 28%. For CC1CCN(C(=O)C(C)n2cc(Br)cn2)CC1 (centres unmarked) the result was Toxoplasma: -14.75%; LiHisRS: 6.897%. CCN(Cc1cccc2c1OCO2)C(=O)NC1CC1 read Toxoplasma: -0.8899%; LiHisRS: -6.25%. With NC(=O)c1ccc(S(=O)(=O)NC(=O)COc2ccc3c(c2)CCC3)cc1 the screen gave Toxoplasma: 6.241%; LiHisRS: 2.128%. c1cnc(N2CCC(OCCN3CCCCC3)C2)nc1 (centres unmarked) gave Toxoplasma: 1.644%; LiHisRS: 5.128%. O=C(O)C(F)(F)F.[H][C@@]12CN(CCOC)C[C@]1([H])[C@@H](OC)CCN2C(=O)Cc1ccsc1 read Toxoplasma: -7.655%.

Cc1ccc(CNC(=O)CN2CCOC(Cn3cccn3)C2)s1 (centres unmarked) gave Toxoplasma: 0.4253%; LiHisRS: 7.339%. With Cn1cc(C(=O)N2CCCC2c2noc(C3CC3)n2)c2ccccc21 (centres unmarked) the screen gave Toxoplasma: 14.72%; LiHisRS: 0%. With Cc1ncsc1CN(C)C(=O)C(CC(C)C)N1CCCCC1=O (centres unmarked) the screen gave Toxoplasma: -10.77%; LiHisRS: 6.897%. Cc1ccc(NS(=O)(=O)c2cc3c(c(C(=O)O)c2)OCCO3)cc1F read Toxoplasma: -16.79%; LiHisRS: 6.087%. For COc1c(CNCc2ccc(CS(C)(=O)=O)cc2)c(C)nn1C the result was Toxoplasma: 3.773%; LiHisRS: 17.09%. With O=C1N(c2ccc(Cl)cc2)Cc2nc(=O)[nH]n21 the screen gave Toxoplasma: 10.52%; LiHisRS: 13.33%.

With O=C(CSc1ccccc1)N1CCc2c(ncnc2N2CCOCC2)C1 the screen gave Toxoplasma: 26.09%; LiHisRS: 15.15%. For Cc1oncc1C(=O)N1C[C@H](OCc2ccccn2)[C@H]2OCCC[C@H]21 the result was LiHisRS: 20.51%. Result for CNC(=O)C(NC(=O)c1c(C)noc1C)c1ccc(F)c(F)c1 (centres unmarked) was Toxoplasma: -3.805%; LiHisRS: -9.821%. CCOc1ccnc(N2CCCN(c3nc(C4CC4)ns3)CC2)n1 read Toxoplasma: -2.398%; LiHisRS: 8.264%. With Cc1cccc(CN2C(=O)CO[C@@H]3CN(Cc4cnn(C)c4)C[C@H]32)c1 the screen gave LiHisRS: 23.08%. O=C([C@H]1CCCO1)N1CCC2(CC1)CNCc1ccccc12 read LiHisRS: -53.45%.

Cc1cc(F)ccc1OC1(C(=O)O)CCN(Cc2cccnc2)CC1 read Toxoplasma: -7.493%; LiHisRS: 5.263%. With CCc1cc(NCCc2cccnc2)n2nc(C)c(C)c2n1 the screen gave Toxoplasma: -0.3367%; LiHisRS: 11.32%. Result for Cc1nccc(C(=O)N2CCCN(Cc3nccn3C(C)C)CC2)n1 was Toxoplasma: -0.3912%; LiHisRS: 17.59%. With Cc1cc(CN2CCN(C(=O)NC(C)c3cccnc3)CC2)on1 (centres unmarked) the screen gave Toxoplasma: -18.77%; LiHisRS: 23.2%. CC(C)(C)C(=O)N1CCCN(c2ncnc3nc(N)ccc23)CC1 read Toxoplasma: 0.3386%; LiHisRS: 21.67%. Result for CC(C)Oc1ncccc1CNC(=O)c1ccc(=O)[nH]n1 was Toxoplasma: 5.458%; LiHisRS: 7.895%.

CCN1CCC2(CCC1=O)CN(c1ccnc(SC)n1)CCN2C (centres unmarked) gave Toxoplasma: 4.075%; LiHisRS: 18.45%. With Cc1ccc2c(c1)CCC2NCc1c(C)nn(C)c1N1CCOCC1 (centres unmarked) the screen gave LiHisRS: 10.17%. For O=C(O)C(F)(F)F.[H][C@@]12CCN(CC3CCOCC3)[C@@]1([H])CCN2C(=O)c1cccn1C the result was Toxoplasma: 0.6929%. Cc1ccnc(NC(=O)CCNC(=O)c2ccccc2Cl)c1 read Toxoplasma: -6.575%; LiHisRS: 10.17%. Result for COc1ccc(NC(=O)CSc2nc(C)cc(C)n2)cn1 was Toxoplasma: -7.078%; LiHisRS: 10.83%. O=C(Nc1cnn(CCN2CCOCC2)c1)c1ccccn1 gave Toxoplasma: -17.22%; LiHisRS: 21.6%.

With O=C(O)C(F)(F)F.O=C(O)C(F)(F)F.c1cncc(C2COC3(CCN(Cc4ccsc4)CC3)C2)c1 (centres unmarked) the screen gave Toxoplasma: 7.575%.

The last 2 entries again:

| Compound | Toxoplasma | LiHisRS |
|---|---|---|
| `O=C(Nc1cnn(CCN2CCOCC2)c1)c1ccccn1` | -17.22% | 21.6% |
| `O=C(O)C(F)(F)F.O=C(O)C(F)(F)F.c1cncc(C2COC3(CCN(Cc4ccsc4)CC3)C2)c1` (centres unmarked) | 7.575% | - |

Measurements from “University of Dundee, Small-Polar-MMV Screening Library” (2021), ChEMBL document CHEMBL3988442.